Assay [1] addresses endogenous Fbw7 (HEK293T cells) (human (endogenous in HEK293T)) (UniProt Q969H0). The experiment in a line: co-IP; endogenous proteins; HEK293T lysates precipitated with anti-Fbw7, anti-Stat3 or anti-pStat3^Tyr705 antibody; IgG as control; western blot (Additional file 5).
A further assay concerns the target Flag-Stat3 (human) (UniProt P40763). The experiment in a line: co-IP; HEK293T cells co-transfected with Myc-Fbw7 and Flag-Stat3; RIPA lysates precipitated with anti-Myc or anti-Flag antibody on protein A/G beads overnight; western blot. (In general: Immunoblotting shows a protein as a band on a membrane.)
For assay [2], the target named is endogenous Fbw7 (SU-DHL-2 cells) (human (endogenous in SU-DHL-2)) (UniProt Q969H0). Briefly: co-IP; endogenous proteins; SU-DHL-2 RIPA lysates precipitated with anti-Fbw7, anti-Stat3 or anti-pStat3^Tyr705 antibody on protein A/G beads overnight; IgG as control; western blot.
The next assay deals with Myc-Fbw7 (human) (UniProt Q969H0). Briefly: co-IP; HEK293T cells co-transfected with Myc-Fbw7 and Flag-Stat3; RIPA lysates precipitated with anti-Myc or anti-Flag antibody on protein A/G beads overnight; western blot.
Assay [3] has as its target endogenous Stat3 (HEK293T cells) (human (endogenous in HEK293T)) (UniProt P40763). The experiment in a line: co-IP; endogenous proteins; HEK293T lysates precipitated with anti-Fbw7, anti-Stat3 or anti-pStat3^Tyr705 antibody; IgG as control; western blot (Additional file 5).
Assay [4] concerns the target endogenous pStat3^Tyr705 (HEK293T cells) (human (endogenous in HEK293T)) (UniProt P40763). Described as above.
For assay [5], the target named is endogenous Stat3 (SU-DHL-2 cells) (human (endogenous in SU-DHL-2)) (UniProt P40763). Briefly: co-IP; endogenous proteins; SU-DHL-2 RIPA lysates precipitated with anti-Fbw7, anti-Stat3 or anti-pStat3^Tyr705 antibody on protein A/G beads overnight; IgG as control; western blot.
Assay [6] has as its target endogenous pStat3^Tyr705 (SU-DHL-2 cells) (human (endogenous in SU-DHL-2)) (UniProt P40763). The description is as above.

Protein sequences, listed by entry. Tags and fused reporters are not part of them.
UniProt Q969H0: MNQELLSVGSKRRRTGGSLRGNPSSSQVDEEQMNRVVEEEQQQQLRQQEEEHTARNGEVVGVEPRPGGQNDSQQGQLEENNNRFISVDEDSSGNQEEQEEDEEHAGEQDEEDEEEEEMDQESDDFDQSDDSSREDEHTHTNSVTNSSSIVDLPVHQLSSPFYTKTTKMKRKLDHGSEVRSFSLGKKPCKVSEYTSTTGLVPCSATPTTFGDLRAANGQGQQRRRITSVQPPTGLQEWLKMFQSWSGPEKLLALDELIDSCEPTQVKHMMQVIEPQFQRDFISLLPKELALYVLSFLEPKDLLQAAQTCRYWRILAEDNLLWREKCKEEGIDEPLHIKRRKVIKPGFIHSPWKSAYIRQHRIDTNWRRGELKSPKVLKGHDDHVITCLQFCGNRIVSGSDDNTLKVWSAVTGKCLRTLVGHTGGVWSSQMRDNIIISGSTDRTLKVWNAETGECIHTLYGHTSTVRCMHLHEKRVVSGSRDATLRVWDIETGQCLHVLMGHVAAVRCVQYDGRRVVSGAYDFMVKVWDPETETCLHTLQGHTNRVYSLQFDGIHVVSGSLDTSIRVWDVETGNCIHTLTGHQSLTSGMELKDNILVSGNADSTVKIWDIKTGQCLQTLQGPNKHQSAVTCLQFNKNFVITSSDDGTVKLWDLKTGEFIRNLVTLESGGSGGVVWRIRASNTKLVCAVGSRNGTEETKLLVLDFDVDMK
UniProt P40763: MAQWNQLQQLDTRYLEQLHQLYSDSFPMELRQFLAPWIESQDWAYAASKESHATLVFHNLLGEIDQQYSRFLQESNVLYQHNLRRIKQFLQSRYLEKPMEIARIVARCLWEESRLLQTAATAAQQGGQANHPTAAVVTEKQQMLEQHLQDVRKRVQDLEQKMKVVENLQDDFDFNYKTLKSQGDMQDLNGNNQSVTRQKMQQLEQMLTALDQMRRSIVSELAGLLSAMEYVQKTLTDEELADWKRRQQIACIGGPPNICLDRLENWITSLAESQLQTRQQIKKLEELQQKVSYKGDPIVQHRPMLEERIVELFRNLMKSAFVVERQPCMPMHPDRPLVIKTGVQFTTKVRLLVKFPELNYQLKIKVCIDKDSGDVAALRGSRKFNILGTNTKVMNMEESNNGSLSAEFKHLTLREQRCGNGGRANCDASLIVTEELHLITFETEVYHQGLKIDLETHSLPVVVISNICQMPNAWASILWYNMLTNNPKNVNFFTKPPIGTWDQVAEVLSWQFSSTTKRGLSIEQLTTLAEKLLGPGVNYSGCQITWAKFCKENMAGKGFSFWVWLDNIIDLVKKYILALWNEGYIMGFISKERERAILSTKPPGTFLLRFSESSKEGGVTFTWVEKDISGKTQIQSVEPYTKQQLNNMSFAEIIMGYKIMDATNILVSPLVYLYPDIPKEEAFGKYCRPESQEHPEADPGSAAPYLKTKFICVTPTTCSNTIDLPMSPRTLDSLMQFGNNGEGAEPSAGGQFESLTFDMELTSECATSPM

Results are given in words; binding and its absence hold for the method and conditions named. Binding seen in cells or lysates may run through a third protein. Some results given as binding are weak or reduced against the parent protein; the word gives no strength.

Binding data for 8 substances are collected here from article PMC5223361.

As for “endogenous pStat3^Tyr705 (HEK293T cells) (from UniProt P40763 1-770)”, in assay [1], the binding result is listed as “binds”.
Turning to Myc-Fbw7 (from UniProt Q969H0 1-707), the binding entry in the assay with Flag-Stat3 (human) was “binds”.
In the case of “endogenous pStat3^Tyr705 (SU-DHL-2 cells) (from UniProt P40763 1-770)”, the binding entry in assay [2] is listed as “binds”.
Take “endogenous Stat3 (HEK293T cells) (from UniProt P40763 1-770)”: the binding entry in assay [1] is given as “binds”.
For Flag-Stat3 (from UniProt P40763 1-770), the binding entry with Myc-Fbw7 (human) was “binds”.
In the case of “endogenous Fbw7 (HEK293T cells) (from UniProt Q969H0 1-707)”, the binding entry in assay [3] and in assay [4] was “binds” throughout.
With “endogenous Fbw7 (SU-DHL-2 cells) (from UniProt Q969H0 1-707)”, the binding entry in assay [5] and in assay [6] was “binds” each time.
Regarding “endogenous Stat3 (SU-DHL-2 cells) (from UniProt P40763 1-770)”, in assay [2], the binding entry is “binds”.
